System: high-fat diet loaded mice with STZ-induced diabetes mellitus
Test: Combination treatment of compound A and glipizide in diabetic mice
Assay type: in vivo
Conditions: high-fat diet STZ diabetic ICR mice, non-fasting; single oral dose compound A 1 mg/kg, glipizide 10 mg/kg, alone or combined; up to 8 hours; mean ± standard error
Method: After 3 weeks a high-fat diet (D12492 of Research Diets, Inc.) feeding, ICR mice (CHARLES RIVER LABORATORIES JAPAN, INC.) were intraperitoneally administered streptozocin (SIGMA-ALDRICH JAPAN K.K.; hereinafter abbreviated as STZ) to induce diabetes. […] SIGMA-ALDRICH JAPAN K.K.), either alone or in combination. Blood was taken from the tail vein of each mouse at specified time intervals and plasma glucose levels were measured by GOD colorimetry with a self-testing glucose measuring instrument (Medisafe Mini GR-102; TERUMO CORPORATION, Japan).

`Cc1cnc(C(=O)NCCc2ccc(S(=O)(=O)NC(=O)NC3CCCCC3)cc2)cn1` [Glipizide, glipizide] was tested, and the “Δ plasma glucose AUC” value was -222.3 ± 103.2 mg·h/dL.

From patent publication US20120040898A1, “PHARMACEUTICAL COMPOSITIONS” (TAISHO PHARMACEUTICAL CO., LTD, priority 2009, published 2012)
